Data on 4 compounds can be found in patent EP4578939A1, “MYC[…]. BASED ON VARIOUS CARBON-NITROGEN METABOLIC […], METHOD FOR ISOLATING SAME, AND USE THEREOF” (Peng, Guanghao, priority 2022, dated 2024).

Structures can show the parent of a compound that is named as a salt.

This data set has as its system strain YT. Briefly: inhibition of nitrification inhibitors on nitrification activity and growth. The data set is classed as cell-based, Mycobacterium sp. To be noted: inhibitor 5 mM. The procedure:
The nitrogen contents of the two nitrogen sources were equal in a modified Stephenson medium with (NH4)2SO4 as a nitrogen source (NH4)2SO4 content was 2.0g/L) and a modified Stephenson medium with L-arginine hydrochloride (C6H14N4O2•HCl) as a nitrogen source (C6H14N4O2•HCl content was 1.6 g/L).
When sodium pyruvate was added as a carbon source in the design of a culture medium, 1.0M sodium pyruvate solution (the concentration was calculated in terms of pyruvic acid) was prepared firstly, the pH was adjusted to the range of 7.0-7.2, and the solution was sterilized separately for later use. Before use, 1ml of 1.0M sodium pyruvate solution was added to about 100ml of modified Stevenson culture medium with (NH4)2SO4 as a nitrogen source or L-arginine hydrochloride (C6H14N4O2•HCl) as a nitrogen source, and the pyruvic acid concentration of the culture system was designed to be 0.01M.
Four kinds of nitrification inhibitors 4-amino-1,2,4-triazole (ATC), dicyandiamide (DCD, C2H4N4), aminoguanidine hydrochloride (CH6N4•HCl), and guanylthiourea (C2H6N4S) were selected. The four nitrification inhibitors were prepared with a concentration of 500mM, respectively, after the solutions were filtered and sterilized, 1ml of the four nitrification inhibitors with a concentration of 500mM was added into the two medium with different nitrogen sources, such that the corresponding concentration of each of the nitrification inhibitors in the systems was 5 mM.
Two mediums with different nitrogen sources were respectively subjected to 5 treatments, namely without addition of an inhibitor, adding ATC, adding DCD, adding aminoguanidine hydrochloride, and adding guanylthiourea as shown in the table below; the YT system without addition of an inhibitor and the system without inoculation of strain YT and only addition of an inhibitor were respectively used as a control group; 1ml of PBS-YT bacterial liquid was inoculated, and 1ml of sterile water was used as a substitute when the inoculation of a bacterial strain was not performed. The total volume of each culture system was equal, it was about 100 ml.
1.5 Culture conditions: the culture was performed in a shaking table with a rotational speed of 180rpm at 28°C.
1.6 Measurement and calculation of indicator: the growth OD600 and pH value of thallus in the culture solution were measured every week, the contents of NH4^+-N, NO2^--N and NOx^--N were measured, the inhibition effect of the nitric oxide synthase (nitrification) activity of different culture systems were calculated and compared.
Nitric oxide synthase (nitrification) inhibition rate (%) = (NO2^--NYT concentration - NO2^--Nculture system added with an inhibitor concentration) ×100/ NO2^--NYT concentration

Setting [1] is: L-arginine hydrochloride as nitrogen source, 7 days (Table 13c).
Where [2] appears, read: L-arginine hydrochloride as nitrogen source, 14 days (Table 13c).
[3] abbreviates: L-arginine hydrochloride as nitrogen source, 20 days.
Where [4] appears, read: L-arginine hydrochloride as nitrogen source, 31 days.
Setting [5] is: ammonium sulfate as nitrogen source, 7 days (Table 13c).
Where [6] appears, read: ammonium sulfate as nitrogen source, 14 days (Table 13c).
Where [7] appears, read: ammonium sulfate as nitrogen source, 20 days.
The mark [8] stands for this setting: ammonium sulfate as nitrogen source, 31 days.
The mark [9] stands for this setting: L-arginine hydrochloride as nitrogen source, 7 days.
Where [10] appears, read: L-arginine hydrochloride as nitrogen source, 14 days.
The mark [11] stands for this setting: L-arginine hydrochloride as nitrogen source, 21 days.
The mark [12] stands for this setting: L-arginine hydrochloride as nitrogen source, 28 days.
[13] abbreviates: L-arginine hydrochloride as nitrogen source, 35 days.
[14] abbreviates: ammonium sulfate as nitrogen source, 7 days.
The mark [15] stands for this setting: ammonium sulfate as nitrogen source, 14 days.
The mark [16] stands for this setting: ammonium sulfate as nitrogen source, 21 days.
[17] abbreviates: ammonium sulfate as nitrogen source, 28 days.
Where [18] appears, read: ammonium sulfate as nitrogen source, 35 days.

With `N#CN=C(N)N` [DCD, dicyandiamide], the pH came out at 7.5 under setting [1]; 7.7 under setting [2]; 7.7 under setting [3]; 7.5 under setting [4]; 7.0 under setting [5]; 7.0 under setting [6]. The pH under setting [7] was found to be 7.2 and the pH under setting [8] turned out to be 7.0.
On to `N=C(N)NC(N)=S` [Amidinothiourea, guanylthiourea], for which the pH runs as follows: under setting [9], 7.2; under setting [10], 7.7; under setting [11], 7.7; under setting [12], 7.7; under setting [13], 8.0; under setting [14], 6.5. In addition, the pH by setting is: under setting [15], 7.0; under setting [16], 7.0; under setting [17], 7.0; under setting [18], 7.0.
In the case of `Nn1cnnc1` [ATC, 4-amino-1,2,4-triazole], the pH is reported as 7.5 under setting [1]; 7.7 under setting [2]; 8 under setting [3]; 7.7 under setting [4]; 7.0 under setting [5]; 7.0 under setting [6]. Moreover, the pH was 7.2 under setting [7] and 7.0 under setting [8].
As for `N=C(N)NN` [Aminoguanidine hydrochloride, aminoguanidine hydrochloride], the pH is 7.5 under setting [9]; 7.2 under setting [10]; 7.2 under setting [11]; 7.5 under setting [12]; 7.5 under setting [13]; 6.7 under setting [14]. Also, the pH is 6.7 under setting [15], 6.7 under setting [16], 7.0 under setting [17] and 6.7 under setting [18].
